Here are results for two substances from PMC8187923.

By UniProt entry, the sequences of proteins in these tests, tags left out.
UniProt Q04206: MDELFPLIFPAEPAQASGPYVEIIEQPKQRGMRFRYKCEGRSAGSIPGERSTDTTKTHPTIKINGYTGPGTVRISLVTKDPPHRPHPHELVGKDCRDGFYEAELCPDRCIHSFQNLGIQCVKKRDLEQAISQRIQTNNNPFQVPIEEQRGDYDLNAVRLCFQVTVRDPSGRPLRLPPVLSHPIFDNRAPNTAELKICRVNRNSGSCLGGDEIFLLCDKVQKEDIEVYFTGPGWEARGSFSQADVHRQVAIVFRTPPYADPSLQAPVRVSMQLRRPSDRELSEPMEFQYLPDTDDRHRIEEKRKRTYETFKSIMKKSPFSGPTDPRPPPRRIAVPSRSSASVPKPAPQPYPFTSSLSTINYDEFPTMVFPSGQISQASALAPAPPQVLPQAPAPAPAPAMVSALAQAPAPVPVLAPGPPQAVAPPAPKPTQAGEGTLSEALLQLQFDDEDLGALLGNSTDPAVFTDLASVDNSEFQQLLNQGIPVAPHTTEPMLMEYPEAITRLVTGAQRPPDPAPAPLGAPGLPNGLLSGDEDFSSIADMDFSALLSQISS
UniProt P19474: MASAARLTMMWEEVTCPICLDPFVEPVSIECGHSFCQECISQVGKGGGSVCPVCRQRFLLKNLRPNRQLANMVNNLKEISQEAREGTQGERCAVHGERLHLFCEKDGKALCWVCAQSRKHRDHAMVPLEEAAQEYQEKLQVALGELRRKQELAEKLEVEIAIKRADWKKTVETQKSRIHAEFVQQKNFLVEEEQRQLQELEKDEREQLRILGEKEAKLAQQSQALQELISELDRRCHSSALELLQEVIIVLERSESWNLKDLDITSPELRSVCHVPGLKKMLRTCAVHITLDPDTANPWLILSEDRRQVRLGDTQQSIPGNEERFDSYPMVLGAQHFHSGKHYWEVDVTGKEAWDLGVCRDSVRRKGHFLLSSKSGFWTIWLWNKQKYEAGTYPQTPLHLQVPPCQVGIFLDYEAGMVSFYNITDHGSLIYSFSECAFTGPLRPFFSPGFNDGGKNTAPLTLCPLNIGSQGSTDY
UniProt P25963: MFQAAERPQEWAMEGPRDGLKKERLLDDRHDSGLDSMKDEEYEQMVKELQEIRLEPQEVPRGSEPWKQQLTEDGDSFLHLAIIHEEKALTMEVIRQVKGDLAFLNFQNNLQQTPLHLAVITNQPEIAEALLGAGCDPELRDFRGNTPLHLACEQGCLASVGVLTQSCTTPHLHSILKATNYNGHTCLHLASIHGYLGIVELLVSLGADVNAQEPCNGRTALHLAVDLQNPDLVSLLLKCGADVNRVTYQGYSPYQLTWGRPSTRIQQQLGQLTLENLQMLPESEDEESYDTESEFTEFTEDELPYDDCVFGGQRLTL

Results are given in words; binding and its absence hold for the method and conditions named. In cells and extracts the contact can be indirect. Some entries that bind do so weakly or less than the wild type.

What all share (assay): co-IP
For experiment [1], the target named is Endogenous p65 of HEK293T cells (human (endogenous in HEK293T)) (UniProt Q04206).
The target of experiment [2] is Endogenous TRIM21 of HEK293T cells (human (endogenous in HEK293T)) (UniProt P19474).
Experiment [3] has as its target Human TRIM21, HA-tagged (pcDNA3.1-TRIM21-HA) (human) (UniProt P19474).

Turning to “Human TRIM21, HA-tagged (pcDNA3.1-TRIM21-HA) (from UniProt P19474 1-475) (enzyme)”, the binding result in experiment [1] is reported as “binds”.
In the case of “Endogenous IκB-α of HEK293T cells (from UniProt P25963 1-317) (other; other documents disagree on this pair)”, the binding entry in experiment [2] and in experiment [3] was “binds” in each case.
